Data as given in patent US20120238491A1 (THERIMUNEX PHARMACEUTICALS, INC., priority 2009, published 2012).

Test: general procedure: peptide synthesis; H-Isoleucine-2-Chlorotrityl resin; HBTU
Details: lipidation step

Substance: 1-Peptidyl-2-arachidonoyl-3-stearoyl glyceride (pDAG); acALYDKGYTSKEQKDCVGI(DAG)
- step yield: 4%
- final HPLC purity (220 nm): 98.9%
